These are yes or no findings as the source states them, for the method shown. In cells and extracts the contact can be indirect. Some binding calls cover weakened binding; strength is not graded here.

Chains of the proteins cited; added tags and fusions are not shown.
UniProt O00629: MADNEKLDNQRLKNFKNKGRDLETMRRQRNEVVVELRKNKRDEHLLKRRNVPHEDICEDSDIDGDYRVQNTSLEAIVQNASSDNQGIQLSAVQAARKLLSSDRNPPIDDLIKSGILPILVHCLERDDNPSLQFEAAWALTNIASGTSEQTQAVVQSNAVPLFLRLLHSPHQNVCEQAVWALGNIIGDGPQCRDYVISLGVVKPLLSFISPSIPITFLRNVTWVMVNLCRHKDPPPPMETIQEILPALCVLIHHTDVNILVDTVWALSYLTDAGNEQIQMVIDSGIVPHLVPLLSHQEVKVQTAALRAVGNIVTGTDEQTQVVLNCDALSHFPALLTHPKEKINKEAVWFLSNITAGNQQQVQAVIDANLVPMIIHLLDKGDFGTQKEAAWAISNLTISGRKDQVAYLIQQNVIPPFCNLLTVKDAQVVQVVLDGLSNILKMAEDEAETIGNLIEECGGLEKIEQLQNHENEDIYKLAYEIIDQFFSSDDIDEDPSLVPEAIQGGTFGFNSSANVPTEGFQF
UniProt P52294: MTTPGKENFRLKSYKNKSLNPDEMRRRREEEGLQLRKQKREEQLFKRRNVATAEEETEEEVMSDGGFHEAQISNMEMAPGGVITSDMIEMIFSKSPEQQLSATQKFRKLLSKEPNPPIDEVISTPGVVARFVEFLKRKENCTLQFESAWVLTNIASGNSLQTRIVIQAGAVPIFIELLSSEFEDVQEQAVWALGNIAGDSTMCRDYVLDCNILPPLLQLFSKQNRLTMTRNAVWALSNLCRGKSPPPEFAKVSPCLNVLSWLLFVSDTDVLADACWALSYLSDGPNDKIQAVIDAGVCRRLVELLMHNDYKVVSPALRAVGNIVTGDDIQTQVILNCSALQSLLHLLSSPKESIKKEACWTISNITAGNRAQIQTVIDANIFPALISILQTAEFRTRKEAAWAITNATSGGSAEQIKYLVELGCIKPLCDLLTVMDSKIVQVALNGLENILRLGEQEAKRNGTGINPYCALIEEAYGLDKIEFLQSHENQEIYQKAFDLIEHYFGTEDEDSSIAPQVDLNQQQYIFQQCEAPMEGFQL
UniProt Q04206: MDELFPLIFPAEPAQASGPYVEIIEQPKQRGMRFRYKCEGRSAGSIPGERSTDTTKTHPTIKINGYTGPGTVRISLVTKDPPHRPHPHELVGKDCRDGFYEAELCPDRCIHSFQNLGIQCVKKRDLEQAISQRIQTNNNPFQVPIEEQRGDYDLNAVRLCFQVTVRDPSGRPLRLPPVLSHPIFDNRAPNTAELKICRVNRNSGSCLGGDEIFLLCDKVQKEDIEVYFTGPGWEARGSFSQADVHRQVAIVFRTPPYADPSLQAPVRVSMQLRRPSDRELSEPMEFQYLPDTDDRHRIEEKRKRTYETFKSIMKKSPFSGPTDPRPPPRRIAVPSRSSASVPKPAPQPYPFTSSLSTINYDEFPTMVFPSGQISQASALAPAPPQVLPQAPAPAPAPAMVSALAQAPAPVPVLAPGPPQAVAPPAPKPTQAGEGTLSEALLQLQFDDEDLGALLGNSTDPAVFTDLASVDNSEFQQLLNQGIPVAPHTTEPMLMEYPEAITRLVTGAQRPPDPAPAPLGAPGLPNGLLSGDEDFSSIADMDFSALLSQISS

One assay deals with HA-importin α3 (UniProt O00629). In words: co-IP; MDA-MB231 cells expressing HA-importin α3 or α5, treated with SP-8356 and TNF-α; lysis in 50 mM Tris-HCl pH 7.5, 150 mM NaCl, 1% Triton X-100; anti-HA agarose 2 h at 4 °C; Western blot for p65 and HA.
For another assay, the target named is HA-importin α5 (UniProt P52294). The assay is described as above.

Regarding “NF-κB RelA/p65 subunit (from UniProt Q04206 1-551)”, the binding entry with HA-importin α3 and with HA-importin α5 was “binds” throughout.

Source of the values: PMC6488667.
